PubChem BioAssay AID624291 (National Center for Advancing Translational Sciences (NCATS), 2012)
In all, about 350,000 compounds went through this assay and about 220 (0.063%) were called active. The inconclusive results got no clear call from the source; some entries with a clear call stand among them for comparison. Calls follow the shape of the dose curve; as a rule, active = well fitted activation curve with a large enough effect; inconclusive = small, poorly fitted or top-dose-only effect; inactive = no such curve, though single readings can be large or run the other way. A potency beside an inconclusive call is a rough fit, not a confirmed value.

Assay: qHTS for Activators of Integrin-Mediated Alleviation for Muscular Dystrophy; also: nearly all actives have a fitted effect of over 60% in size
Conditions: alpha7betagal myoblasts, beta-gal FDG fluorescence, 48 h; series mostly up to 38.3 µM
Procedure, shortened: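 Alpha7betagal+/- myoblasts (passage 13) were plated 16-24 hr, then exposed to compounds (1:260 dilution of DMSO stock) for 48 hours at 37C. After MPER lysis, β-galactosidase reporter activity was read as FDG fluorescence (ex 480/em 540) after 30 minutes.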
Potency is read from the fitted curve at half-maximal effect.

Potency, inconclusive:
COc1ccccc1NS(=O)(=O)c1cc(NC(=O)c2cc[n+]([O-])cc2)ccc1N1CCCC1 15.8 µM [activator, single point], CSc1nsc(SCC(=O)Nc2cccc(NC(C)=O)c2)n1 1 µM [activator, single point], COCCNCc1ccc(Cl)cc1Cl 3.16 µM [activator, partial curve, poor fit], Cc1ccc(S(=O)(=O)N/N=C/c2cc(Br)ccc2O)cc1 17.8 µM [activator, partial curve, poor fit], CCc1ccc(NC(=O)[C@H](NC(=O)[C@@H]2Cc3ccccc3CN2)c2ccccc2)cc1 10 µM [activator, partial curve, poor fit], COc1cc(CNCCNC(=O)c2cccs2)cc(OC)c1OC 5.62 µM [activator, partial curve], Cc1ccc2c(c1)N(CC(=O)Nc1ccccc1F)C(=O)C(C)O2 (configuration not stated) 3.55 µM [activator, single point], O=C(COc1ccc2c3c(c(=O)oc2c1)CCC3)NCCCN1CCOCC1 2.51 µM [activator, partial curve, poor fit], O=C(Cc1ccc(Cl)cc1)Nc1ccc(NC(=O)c2cccs2)cc1 2.82 µM [activator, partial curve, poor fit], CC(C)C(NC(=O)C1CCCCC1)C(=O)NC1CCCC(C)C1C (configuration not stated) 28.2 µM [activator, single point], COC(=O)c1cc(=O)n(Cc2ccc(F)cc2)c(=Nc2ccccc2)s1 5.01 µM [activator, single point], CCN(C(=O)COC(=O)CCC(=O)c1ccc(Cl)cc1)c1c(N)n(Cc2ccccc2)c(=O)[nH]c1=O 28.2 µM [activator, single point], COc1ccc(/C=N/NC(=O)c2cccc(S(=O)(=O)N3CCCC3)c2)cc1O 11.2 µM [activator, single point], CC(NC(=O)c1cccc(F)c1)C1CC2CCC1C2 (configuration not stated) 1 µM [activator, full curve, poor fit], COC(=O)Cn1ncc(N(C)Cc2ccccc2)c(Cl)c1=O 20 µM [activator, partial curve, poor fit], O=C(c1cc(-c2cccc(O)c2)on1)N1CCN(C(c2ccccc2)c2ccccc2)CC1 10 µM [activator, single point], Nc1nc(=S)c2ncn(C3CCCC3)c2[nH]1 10 µM [activator, partial curve, poor fit], S=c1[nH]nc(-c2n[nH]c3c2CCC3)n1/N=C/C=C/c1ccco1 1.41 µM [activator, partial curve, poor fit], O=C(Oc1ccccc1)N1CCCC1 0.447 µM [activator, full curve, poor fit], CC1CCN(S(=O)(=O)c2cccc(C(=O)NC3CCCCC3)c2)CC1 3.16 µM [activator, single point], Cc1nc(N)sc1-c1csc(Nc2cccc(C(=O)O)c2)n1 2.82 µM [activator, partial curve, poor fit], C=CCC(CC=C)(NC(=O)c1ccccc1C(=O)O)c1ccccc1 3.16 µM [activator, single point], O=[N+]([O-])c1cccc(/C=N/n2c(COc3ccccc3)n[nH]c2=S)c1 1.58 µM [activator, partial curve, poor fit], O=C(O)c1ccccc1Nc1ccnc(Cl)n1 2.24 µM [activator, full curve, poor fit], CCn1c(C)nc2cc(NC(=O)Nc3cccc(C(C)=O)c3)ccc21 22.4 µM [activator, single point], COc1ccc(NC(=O)CCN2CCN(S(=O)(=O)c3ccc(F)cc3)CC2)cc1 5.01 µM [activator, single point], COc1cccc(N2CCN(C(=O)C3CCCN(c4ncnc5c4nc4n5CCCCC4)C3)CC2)c1 (configuration not stated) 3.16 µM [activator, full curve, poor fit], CC(C)Cn1c(N)c(C(=O)CSc2nncs2)c(=O)n(C)c1=O 5.01 µM [activator, single point], O=C(COc1ccccc1)Nc1ccc(Cl)cn1 3.98 µM [activator, full curve, poor fit], COCCNC(=O)c1ccccc1NC(=O)CSc1ccc(C)cc1 22.4 µM [activator, partial curve, poor fit], CC(=O)c1cccc(NC(=O)c2ccc(CN3CCc4ccccc4C3)cc2)c1 1 µM [activator, full curve, poor fit], COc1cc2c(cc1OC)/C(=C/C(=O)c1cccc([N+](=O)[O-])c1)NCC2 3.55 µM [activator, partial curve, poor fit], O=C(/C=C/c1ccccc1)Nc1cccnc1Cl 10 µM [activator, partial curve, poor fit], COc1ccc(/C=N/S(=O)(=O)c2ccc(C)cc2)cc1 5.01 µM [activator, single point], COc1ccc(C2CC(c3ccc(Br)cc3)=NN2C(=O)CSC2=NN3CCCC(=O)N=C3S2)cc1 (configuration not stated) 5.01 µM [activator, single point], Cc1cc(C)nc(NC(=O)c2ccc(Cl)cc2)n1 28.2 µM [activator, single point], CCCCc1nc2cc(C(=O)N(C)C3CCOCC3)ccc2o1 11.2 µM [activator, single point], CC(c1cccs1)N(Cc1ccco1)C(=S)Nc1ccc(F)c(Cl)c1 (configuration not stated) 7.08 µM [activator, partial curve, poor fit], O=C(NCc1ccccc1)c1ccc(CS(=O)Cc2ccc(Cl)cc2)o1 (configuration not stated) 8.91 µM [activator, single point], CCNC(=S)NCc1ccc(OC)c(OC)c1 28.2 µM [activator, single point], CCCN(CCC)CCNC(=O)CCC(=O)Nc1ccc2nc(N3CCOCC3)cc(C)c2c1 5.01 µM [activator, single point], CCn1c(=S)sc2c(=O)n(-c3ccccc3)c(=S)[nH]c21 10 µM [activator, partial curve, poor fit]

Potency, inactive:
Cn1c(=NC(=O)CS(=O)(=O)c2ccccc2)sc2cc(F)ccc21, O=C(Cc1c(F)cccc1Cl)Nc1ccc(S(=O)(=O)N2CCOCC2)cc1, C[C@H](CO)N1C[C@H](C)[C@@H](CN(C)S(=O)(=O)c2cn(C)cn2)OCc2cnnn2CCCC1=O, CC(=O)Nc1ccc(C(=O)c2ccccc2)cc1, Cc1ccc(NC(=O)NCCCl)cc1S(=O)(=O)N1CCOCC1, CC1CCCN(Cc2ccc(OCc3ccccc3)cc2)C1 (configuration not stated), NC(=O)CSC1=N/C(=C\c2ccco2)C(=O)N1c1ccc(OC(F)F)cc1, COc1ccc(C(=O)Nc2cc(OC)cc3cccnc23)cc1, COc1ccc(O)c(/C=N/Nc2nc(Nc3ccccc3)nc(-n3nc(C)cc3C)n2)c1, Cc1ccc(NC(=S)Nc2ccc3nc(-c4ccccn4)c(-c4ccccn4)nc3c2)cc1C, O=C(c1ccc2c(c1)OCO2)C1CCCN(Cc2ccc3cccc(F)c3n2)C1 (configuration not stated), CN1CCN(c2ccccc2NC(=O)c2c(F)cccc2F)CC1, Cc1ccc(S(=O)(=O)NCc2ccccc2)cc1C(=O)NCc1ccncc1, COc1cccc(C(=O)Oc2c(CN3CCOCC3)cc(Cl)c3cccnc23)c1, O=c1[nH]cnc2c1sc1nc(C(F)F)cc(-c3ccccc3)c12, Cn1nc(C#N)c(=O)[nH]c1=O, CCCCN(CCCC)CCNC(=O)CN1C(=O)COc2ccc(S(=O)(=O)N3CCC(C)CC3)cc21, CCOc1ccccc1N(C)C(=O)c1cn(C)c(=O)c2ccccc12, O=C(Nc1ccc2c(c1)OCO2)c1cnc2n(c1=O)CCS2, CCC(c1c(C)n(C)n(-c2ccccc2)c1=O)c1c(C)n(C)n(-c2ccccc2)c1=O, Cn1cc(C(=O)c2cccc(Cl)c2)cc1C#N, COc1ccc(CCN(C)C(=O)CCc2nnc(-c3ccccc3)o2)cc1OC, COC(=O)c1ccccc1S(=O)(=O)N1CCC(C(=O)NCCC2=CCCCC2)CC1, CC(C)NC(=O)NC(=O)COC(=O)c1c2c(nc3ccccc13)CCC2, Cc1ccc2[nH]c(=O)c(C(c3nnnn3CC3CCCO3)N3CCOCC3)cc2c1 (configuration not stated), CCn1cc(C2C(C(=O)Nc3cc(C)ccn3)=C(C)NC3=C2C(=O)CC(C)(C)C3)c(C)n1 (configuration not stated), CN(CC(=O)Nc1c(Cl)cccc1Cl)C(=O)c1cccc(-n2cccc2)c1, O=C(O)/C=C/C(=O)Nc1ccc(S(=O)(=O)N2CCCC2)cc1, Cc1ccccc1S(=O)(=O)Cc1ccc(C(=O)NCCCN2CCN(C)CC2)o1, Cc1cc(C)c(C)c(S(=O)(=O)N(C)C2CCN(C)CC2)c1C
